The text below walks through data of patent publication US5340591A, “Method of producing a solid dispersion of the sparingly water-soluble drug, nilvadipine” (Fujisawa Pharmaceutical Co., Ltd., priority 1992, dated 1994).

One may read the solubility as how much of the substance goes into solution per volume.

A short description of the series: physchem. Particulars: distilled water.

≈ marks a conversion by molar mass, not a printed value.

`COC(=O)C1=C(C)NC(C)=C(C(=O)OC)C1c1ccccc1[N+](=O)[O-]` [nifedipine bulk substance, nifedipine]: the solubility was found to be 12 µg/mL (≈ 34.6 µM).
